Experimental data reported in US20260217692A1 (Ascentage Pharma (Suzhou) Co., Ltd., priority 2023, published 2026).
Further values from the same series stand in other lists.

Assays:
Type in all cases: physicochemical
[1] = Polymorph screening test, heating and cooling method (crystal form by XRPD); conditions: free base screening, dissolved at 50° C., cooled to 4° C.
Source text: (§1) The results are as follows:

[2] = Polymorph screening test, volatilization method (crystal form by XRPD); conditions: free base screening
Source text: as §1
A total of 15 slow volatilization tests were set up using different solvent systems. […] The resulting solid was collected and subjected to the XRPD test.
A total of 10 slow volatilization tests were set up using different solvent systems. […] The resulting solid was collected and subjected to the XRPD test.
A total of 3 slow volatilization tests were set up using different solvent systems. […] The resulting solid was collected and subjected to the XRPD test.

[3] = Polymorph screening test, poor solvent / anti-solvent method (crystal form by XRPD); conditions: free base screening, stirred 5 days
Source text: as §1

## Cc1cc(Nc2ncc(Cl)c(Nc3ccccc3S(=O)(=O)C(C)C)n2)c(OC(C)C)cc1C1=CCN(C2CCOCC2)CC1
[1]; 1,4-Dioxane
  Crystal form (XRPD): Crystal form G
[1]; ACN/DCM(1:1, v/v)
  Crystal form (XRPD): Crystal form D
[1]; Acetone
  Crystal form (XRPD): Crystal form E
[1]; DCM
  Crystal form (XRPD): No solid sample was obtained
[1]; EtOAc
  Crystal form (XRPD): Crystal form D
[1]; EtOH/DCM(2:1, v/v)
  Crystal form (XRPD): No solid sample was obtained
[1]; IPA/DCM(1:1, v/v)
  Crystal form (XRPD): No solid sample was obtained
[1]; MeOH/DCM(3:1, v/v)
  Crystal form (XRPD): Crystal form O
[1]; THF
  Crystal form (XRPD): Crystal form D
[1]; iPrOAc/DCM(1:1, v/v)
  Crystal form (XRPD): Crystal form D
[2]; slow volatilization at room temperature from 1,4-Dioxane
  Crystal form (XRPD): Crystal form N
[2]; slow volatilization at room temperature from ACN/DCM(10:3)
  Crystal form (XRPD): Crystal form D
[2]; slow volatilization at room temperature from Acetone
  Crystal form (XRPD): Crystal form D
[2]; slow volatilization at room temperature from DCM
  Crystal form (XRPD): No solid sample was obtained
[2]; slow volatilization at room temperature from EtOAc
  Crystal form (XRPD): Crystal form D
[2]; slow volatilization at room temperature from EtOH/DCM(5:1)
  Crystal form (XRPD): Crystal form L
[2]; slow volatilization at room temperature from IPA/DCM(5:1)
  Crystal form (XRPD): Crystal form M
[2]; slow volatilization at room temperature from MeOH/DCM(5:1)
  Crystal form (XRPD): Crystal form K
[2]; slow volatilization at room temperature from THF
  Crystal form (XRPD): No solid sample was obtained
[2]; slow volatilization at room temperature from iPrOAc/DCM(5:1)
  Crystal form (XRPD): Crystal form D
[3]; good solvent DCM, poor solvent ACN
  Crystal form (XRPD): Crystal form D
[3]; good solvent DCM, poor solvent Acetone
  Crystal form (XRPD): Crystal form E
[3]; good solvent DCM, poor solvent EA
  Crystal form (XRPD): Crystal form D
[3]; good solvent DCM, poor solvent MTBE
  Crystal form (XRPD): Crystal form D
[3]; good solvent DCM, poor solvent MeOH
  Crystal form (XRPD): No solid sample was obtained
[3]; good solvent DCM, poor solvent Water
  Crystal form (XRPD): No solid sample was obtained
[3]; good solvent DCM, poor solvent n-Heptane
  Crystal form (XRPD): Crystal form D
[3]; good solvent DMF, poor solvent MTBE
  Crystal form (XRPD): No solid sample was obtained
[3]; good solvent DMF, poor solvent Water
  Crystal form (XRPD): Crystal form J
[3]; good solvent DMF, poor solvent n-Heptane
  Crystal form (XRPD): No solid sample was obtained
[3]; good solvent Dioxane, poor solvent MTBE
  Crystal form (XRPD): No solid sample was obtained
[3]; good solvent Dioxane, poor solvent Water
  Crystal form (XRPD): Crystal form C
[3]; good solvent Dioxane, poor solvent n-Heptane
  Crystal form (XRPD): Crystal form G
[3]; good solvent NMP, poor solvent MTBE
  Crystal form (XRPD): No solid sample was obtained
[3]; good solvent NMP, poor solvent Water
  Crystal form (XRPD): Crystal form C
[3]; good solvent NMP, poor solvent n-Heptane
  Crystal form (XRPD): No solid sample was obtained
[3]; good solvent THF, poor solvent ACN
  Crystal form (XRPD): Crystal form D
[3]; good solvent THF, poor solvent Acetone
  Crystal form (XRPD): No solid sample was obtained
[3]; good solvent THF, poor solvent EA
  Crystal form (XRPD): No solid sample was obtained
[3]; good solvent THF, poor solvent MTBE
  Crystal form (XRPD): Crystal form D
[3]; good solvent THF, poor solvent MeOH
  Crystal form (XRPD): Crystal form P
[3]; good solvent THF, poor solvent Water
  Crystal form (XRPD): Crystal form R
[3]; good solvent THF, poor solvent n-Heptane
  Crystal form (XRPD): Crystal form Q
